Reference: patent US6690463B2, “Fluorescence intensity and lifetime distribution analysis” (Evotec BioSystems AG, priority 2000, dated 2004)
Read-outs that look alike come from different tables or passages of the source. At least one compound was matched to its structure with a doubt left. Where a SMILES comes first, the peptide text is derived from it. The star is where a group is joined. X1 = CCN1CCCc2cc3c(cc21)Oc1cc2c(cc1=N3)CCC[N+]=2CCCC(=O)*

Target: T1, Calmodulin (Bos taurus, UniProt P62157)
T1 construct: Calmodulin was purchased from BIOMOL (from bovine brain, LOT# P4639c, 1 mg, lyophilized); purchased BIOMOL LOT# P4639c (a lot number; no catalogue number given); host or cells: bovine brain (tissue-derived)
Assay: Calmodulin-peptide interaction titration (fluorescence, hyperbolic fit of fraction bound)
Set-up: species or system bovine
Details: 2.5 nM labeled peptide, read-out: binding constant KD for the Calmodulin-peptide interaction

## CC[C@H](C)[C@H](NC(=O)[C@H](Cc1ccccc1)NC(=O)[C@H](CC(N)=O)NC(=O)[C@H](CCCCN)NC(=O)[C@H](CCCCN)NC(=O)[C@H](Cc1c[nH]c2ccccc12)NC(=O)[C@H](CCCNC(=N)N)NC(=O)[C@H](CCCNC(=N)N)NC(=O)[C@@H](N)CCCCN)C(=O)N[C@@H](C)C(=O)N[C@@H](CCCCNC(=O)CCC[N+]1=c2cc3c(cc2CCC1)=Nc1cc2c(cc1O3)N(CC)CCC2)C(N)=O [H-KRRWKKNFIAK-NH2] (H-KRRWKKNFIAK(X1)-NH2)
FIDA analysis (prior art) of the same titration
  Kd: 29 ± 4 nM
FILDA analysis, Calmodulin titrated 0-50 μM, 2 s data collection, 10 repeats, 25 mM Tris/HCl pH 8, 1 mM CaCl2, 100 mM KCl, 0.05% Pluronic, 22° C.
  Kd: 38 ± 3 nM
FLA analysis (prior art) of the same titration
  Kd: 17 ± 1 nM
